Results reported in paper PMC11032447.
No constants are given. Whether binding was seen depends on the method and setting. For part of these data: In cells and extracts the contact can be indirect. Some results given as binding are weak or reduced against the parent protein; the word gives no strength.

Amino acid sequences for entries named in this document (tags omitted).
UniProt Q91WD9: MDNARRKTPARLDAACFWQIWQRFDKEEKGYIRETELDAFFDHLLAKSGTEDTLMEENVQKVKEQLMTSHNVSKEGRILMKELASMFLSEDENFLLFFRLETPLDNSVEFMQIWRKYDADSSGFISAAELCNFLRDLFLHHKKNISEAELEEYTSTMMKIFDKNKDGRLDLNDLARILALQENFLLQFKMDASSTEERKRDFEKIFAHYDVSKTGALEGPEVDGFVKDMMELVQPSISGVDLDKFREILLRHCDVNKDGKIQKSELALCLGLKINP

Key:
[1] = biological target: His6-tagged GFP-fusion construct carrying the mouse SNAP-25 14-33 peptide as C-terminal tag (mouse); assay: co-purification of co-expressed proteins; His6-GFP-SNAP25C-peptide and tag-free mSCGN co-expressed in E. coli BL21(DE3); complex purified (Ni-NTA, SEC) in buffers with 2 mM CaCl2; SDS gel
[2] = biological target: mSTX4^32–10, His6-tagged syntaxin-4 Hb peptide (mouse); assay: pull-down; His6-tagged partners expressed in E. coli BL21(DE3), captured on Ni-NTA resin as bait; bound secretagogin constructs analysed by SDS-PAGE
[3] = biological target: mouse SNAP-25c motif 147-179 (mouse); assay: differential scanning fluorimetry; denaturation kinetics of mSCGN with the ligand, triplicates; both purified

| binding [1] | binding [2] | binding [3] | Substance |
| --- | --- | --- | --- |
| binds |  |  | mouse secretagogin, tag-free, co-expressed with a His6-tagged partner (from UniProt Q91WD9 1-276) |
|  | binds | binds | mouse secretagogin (from UniProt Q91WD9 1-276) |
